These are yes or no findings as the source states them, for the method shown. In cells and extracts the contact can be indirect. These calls come from enrichment with a bait or labelling near it, and not all partners need be listed. For some assays here: A no says only that the protein was not detected with the bait.
T1: DEAD box polypeptide 4 (DDX4) (mouse (endogenous in testis)) (UniProt Q61496)
T1 sequence: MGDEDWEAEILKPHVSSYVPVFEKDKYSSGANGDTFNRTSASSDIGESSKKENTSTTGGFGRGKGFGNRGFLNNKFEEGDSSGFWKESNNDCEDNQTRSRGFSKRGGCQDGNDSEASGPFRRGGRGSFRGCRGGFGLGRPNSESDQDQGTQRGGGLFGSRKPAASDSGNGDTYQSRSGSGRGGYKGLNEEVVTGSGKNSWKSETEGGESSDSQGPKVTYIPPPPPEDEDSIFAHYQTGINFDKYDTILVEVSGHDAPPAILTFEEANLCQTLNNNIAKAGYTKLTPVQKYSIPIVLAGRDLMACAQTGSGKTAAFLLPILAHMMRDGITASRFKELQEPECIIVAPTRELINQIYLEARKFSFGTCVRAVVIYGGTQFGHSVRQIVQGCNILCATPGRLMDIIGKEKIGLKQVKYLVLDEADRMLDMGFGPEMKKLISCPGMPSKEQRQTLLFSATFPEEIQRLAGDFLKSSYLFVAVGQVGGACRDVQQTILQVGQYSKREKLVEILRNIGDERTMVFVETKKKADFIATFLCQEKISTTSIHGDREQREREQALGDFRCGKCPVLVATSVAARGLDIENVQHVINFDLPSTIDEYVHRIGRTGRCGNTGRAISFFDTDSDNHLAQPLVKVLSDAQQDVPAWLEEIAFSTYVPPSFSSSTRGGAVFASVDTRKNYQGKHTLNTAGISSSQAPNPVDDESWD

Amino acid sequences for entries named in this document (tags omitted).
UniProt P61406: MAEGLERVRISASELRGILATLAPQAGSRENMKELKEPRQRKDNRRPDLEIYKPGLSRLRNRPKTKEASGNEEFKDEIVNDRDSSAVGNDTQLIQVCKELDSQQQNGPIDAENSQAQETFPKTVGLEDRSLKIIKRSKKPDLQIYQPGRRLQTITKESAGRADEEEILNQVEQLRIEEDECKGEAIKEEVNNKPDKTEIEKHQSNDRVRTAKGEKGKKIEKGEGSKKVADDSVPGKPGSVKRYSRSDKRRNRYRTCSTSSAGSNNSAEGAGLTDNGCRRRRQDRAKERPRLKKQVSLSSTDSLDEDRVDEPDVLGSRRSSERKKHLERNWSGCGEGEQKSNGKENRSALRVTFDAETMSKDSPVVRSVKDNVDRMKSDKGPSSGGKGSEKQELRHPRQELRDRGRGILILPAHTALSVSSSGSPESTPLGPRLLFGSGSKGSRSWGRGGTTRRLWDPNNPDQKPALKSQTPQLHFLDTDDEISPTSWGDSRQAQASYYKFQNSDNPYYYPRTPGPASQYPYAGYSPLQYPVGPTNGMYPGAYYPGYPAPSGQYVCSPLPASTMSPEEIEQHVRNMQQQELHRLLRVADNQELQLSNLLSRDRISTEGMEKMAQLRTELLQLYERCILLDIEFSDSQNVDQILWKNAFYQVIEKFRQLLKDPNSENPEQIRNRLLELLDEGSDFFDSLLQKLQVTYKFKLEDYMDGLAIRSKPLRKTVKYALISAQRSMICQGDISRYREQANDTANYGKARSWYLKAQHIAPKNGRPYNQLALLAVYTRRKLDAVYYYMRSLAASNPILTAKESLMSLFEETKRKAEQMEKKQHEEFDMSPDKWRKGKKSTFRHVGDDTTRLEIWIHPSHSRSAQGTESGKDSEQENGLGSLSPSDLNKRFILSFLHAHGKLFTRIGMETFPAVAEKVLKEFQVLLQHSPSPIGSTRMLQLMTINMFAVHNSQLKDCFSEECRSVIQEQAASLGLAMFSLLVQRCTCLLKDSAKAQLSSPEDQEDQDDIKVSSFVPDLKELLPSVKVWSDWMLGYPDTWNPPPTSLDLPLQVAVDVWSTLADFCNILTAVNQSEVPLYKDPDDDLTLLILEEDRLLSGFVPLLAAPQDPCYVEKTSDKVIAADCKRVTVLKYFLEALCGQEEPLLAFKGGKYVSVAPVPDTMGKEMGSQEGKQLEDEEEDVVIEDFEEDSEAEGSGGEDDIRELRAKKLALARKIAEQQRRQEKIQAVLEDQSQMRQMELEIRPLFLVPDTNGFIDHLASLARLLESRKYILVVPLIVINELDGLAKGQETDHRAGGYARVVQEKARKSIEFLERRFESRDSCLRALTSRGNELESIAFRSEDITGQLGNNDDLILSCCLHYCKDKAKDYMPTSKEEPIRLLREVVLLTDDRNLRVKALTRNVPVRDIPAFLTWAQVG
UniProt Q91VC3: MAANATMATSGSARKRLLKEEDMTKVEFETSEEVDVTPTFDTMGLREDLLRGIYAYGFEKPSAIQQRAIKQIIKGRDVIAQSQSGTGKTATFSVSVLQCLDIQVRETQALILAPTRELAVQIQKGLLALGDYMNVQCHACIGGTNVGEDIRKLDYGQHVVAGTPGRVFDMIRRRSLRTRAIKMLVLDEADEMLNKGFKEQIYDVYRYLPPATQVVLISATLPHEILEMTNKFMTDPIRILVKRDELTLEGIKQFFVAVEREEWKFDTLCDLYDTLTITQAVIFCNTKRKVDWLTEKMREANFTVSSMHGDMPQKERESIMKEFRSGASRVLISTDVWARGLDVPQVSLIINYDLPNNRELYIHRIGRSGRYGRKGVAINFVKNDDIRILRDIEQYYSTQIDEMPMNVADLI
UniProt Q61545: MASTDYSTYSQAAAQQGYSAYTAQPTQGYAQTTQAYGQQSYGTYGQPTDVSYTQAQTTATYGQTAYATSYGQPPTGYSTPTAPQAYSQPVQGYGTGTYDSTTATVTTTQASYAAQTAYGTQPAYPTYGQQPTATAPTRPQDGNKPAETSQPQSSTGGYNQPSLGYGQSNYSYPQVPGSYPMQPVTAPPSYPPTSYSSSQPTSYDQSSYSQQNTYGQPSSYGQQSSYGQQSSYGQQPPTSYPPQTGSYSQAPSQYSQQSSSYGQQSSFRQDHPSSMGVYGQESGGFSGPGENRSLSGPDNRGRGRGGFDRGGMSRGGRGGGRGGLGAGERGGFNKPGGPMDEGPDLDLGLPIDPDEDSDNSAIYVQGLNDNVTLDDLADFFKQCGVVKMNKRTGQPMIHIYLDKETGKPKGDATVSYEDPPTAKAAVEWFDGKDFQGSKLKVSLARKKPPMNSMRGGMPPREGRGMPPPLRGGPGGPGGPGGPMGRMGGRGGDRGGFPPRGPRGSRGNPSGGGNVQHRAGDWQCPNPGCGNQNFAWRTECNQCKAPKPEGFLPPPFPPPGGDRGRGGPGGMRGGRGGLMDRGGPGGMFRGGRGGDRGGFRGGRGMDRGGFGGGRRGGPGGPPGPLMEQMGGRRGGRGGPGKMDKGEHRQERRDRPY
UniProt Q61990: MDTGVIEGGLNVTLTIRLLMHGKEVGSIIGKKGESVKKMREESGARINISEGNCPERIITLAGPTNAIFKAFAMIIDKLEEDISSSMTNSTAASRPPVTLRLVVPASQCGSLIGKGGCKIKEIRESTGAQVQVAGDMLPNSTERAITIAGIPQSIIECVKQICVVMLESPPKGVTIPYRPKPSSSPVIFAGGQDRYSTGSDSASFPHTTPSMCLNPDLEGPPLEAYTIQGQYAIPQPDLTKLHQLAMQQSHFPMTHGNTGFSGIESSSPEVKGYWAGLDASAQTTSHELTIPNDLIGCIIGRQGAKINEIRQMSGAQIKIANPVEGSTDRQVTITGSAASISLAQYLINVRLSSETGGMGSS
UniProt Q9JMB7: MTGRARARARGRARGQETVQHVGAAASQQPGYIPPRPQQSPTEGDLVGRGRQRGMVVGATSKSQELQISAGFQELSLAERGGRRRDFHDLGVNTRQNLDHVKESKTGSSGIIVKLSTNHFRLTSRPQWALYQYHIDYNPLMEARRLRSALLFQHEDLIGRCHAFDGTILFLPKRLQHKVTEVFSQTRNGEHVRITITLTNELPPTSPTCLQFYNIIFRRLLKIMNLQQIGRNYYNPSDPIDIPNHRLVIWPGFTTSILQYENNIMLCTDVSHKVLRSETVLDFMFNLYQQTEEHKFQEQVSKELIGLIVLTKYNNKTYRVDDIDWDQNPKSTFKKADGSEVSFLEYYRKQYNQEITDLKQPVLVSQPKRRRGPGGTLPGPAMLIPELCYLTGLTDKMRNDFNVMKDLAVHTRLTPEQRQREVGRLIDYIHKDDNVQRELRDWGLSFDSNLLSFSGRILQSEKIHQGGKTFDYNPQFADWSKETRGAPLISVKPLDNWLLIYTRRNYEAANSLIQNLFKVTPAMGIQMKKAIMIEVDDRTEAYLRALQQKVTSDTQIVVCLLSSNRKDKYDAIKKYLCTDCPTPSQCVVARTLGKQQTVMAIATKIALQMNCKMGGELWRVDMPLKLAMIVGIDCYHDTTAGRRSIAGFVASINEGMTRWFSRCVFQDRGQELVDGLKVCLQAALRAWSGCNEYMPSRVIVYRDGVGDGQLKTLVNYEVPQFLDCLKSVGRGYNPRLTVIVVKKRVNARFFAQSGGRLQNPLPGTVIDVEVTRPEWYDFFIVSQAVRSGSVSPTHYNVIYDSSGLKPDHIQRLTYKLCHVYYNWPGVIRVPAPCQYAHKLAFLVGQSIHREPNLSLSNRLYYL
UniProt Q91W18: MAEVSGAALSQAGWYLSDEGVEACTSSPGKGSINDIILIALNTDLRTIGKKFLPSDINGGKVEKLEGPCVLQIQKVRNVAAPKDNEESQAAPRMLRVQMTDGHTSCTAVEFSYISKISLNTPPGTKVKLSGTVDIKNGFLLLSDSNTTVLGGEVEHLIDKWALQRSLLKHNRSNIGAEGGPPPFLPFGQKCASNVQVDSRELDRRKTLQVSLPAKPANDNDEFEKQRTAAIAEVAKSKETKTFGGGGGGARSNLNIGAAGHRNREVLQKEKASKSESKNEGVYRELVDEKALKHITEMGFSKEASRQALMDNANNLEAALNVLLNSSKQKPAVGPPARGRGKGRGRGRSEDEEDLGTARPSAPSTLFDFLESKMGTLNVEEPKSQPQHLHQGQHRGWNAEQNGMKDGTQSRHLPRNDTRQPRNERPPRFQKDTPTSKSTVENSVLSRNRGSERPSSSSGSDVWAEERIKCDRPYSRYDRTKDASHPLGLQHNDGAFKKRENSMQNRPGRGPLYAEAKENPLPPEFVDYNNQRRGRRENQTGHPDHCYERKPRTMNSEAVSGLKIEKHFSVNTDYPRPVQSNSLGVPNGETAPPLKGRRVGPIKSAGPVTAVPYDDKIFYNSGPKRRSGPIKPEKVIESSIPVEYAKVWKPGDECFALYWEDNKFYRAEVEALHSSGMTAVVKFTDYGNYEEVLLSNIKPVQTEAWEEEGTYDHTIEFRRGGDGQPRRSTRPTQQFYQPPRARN

T2: DEAD box polypeptide 4 (DDX4) (mouse (endogenous in testis)), Q61496
T2 chain: T1 sequence

T3: SMG7 (mouse (endogenous in testis)) (UniProt Q5RJH6)
T3 sequence: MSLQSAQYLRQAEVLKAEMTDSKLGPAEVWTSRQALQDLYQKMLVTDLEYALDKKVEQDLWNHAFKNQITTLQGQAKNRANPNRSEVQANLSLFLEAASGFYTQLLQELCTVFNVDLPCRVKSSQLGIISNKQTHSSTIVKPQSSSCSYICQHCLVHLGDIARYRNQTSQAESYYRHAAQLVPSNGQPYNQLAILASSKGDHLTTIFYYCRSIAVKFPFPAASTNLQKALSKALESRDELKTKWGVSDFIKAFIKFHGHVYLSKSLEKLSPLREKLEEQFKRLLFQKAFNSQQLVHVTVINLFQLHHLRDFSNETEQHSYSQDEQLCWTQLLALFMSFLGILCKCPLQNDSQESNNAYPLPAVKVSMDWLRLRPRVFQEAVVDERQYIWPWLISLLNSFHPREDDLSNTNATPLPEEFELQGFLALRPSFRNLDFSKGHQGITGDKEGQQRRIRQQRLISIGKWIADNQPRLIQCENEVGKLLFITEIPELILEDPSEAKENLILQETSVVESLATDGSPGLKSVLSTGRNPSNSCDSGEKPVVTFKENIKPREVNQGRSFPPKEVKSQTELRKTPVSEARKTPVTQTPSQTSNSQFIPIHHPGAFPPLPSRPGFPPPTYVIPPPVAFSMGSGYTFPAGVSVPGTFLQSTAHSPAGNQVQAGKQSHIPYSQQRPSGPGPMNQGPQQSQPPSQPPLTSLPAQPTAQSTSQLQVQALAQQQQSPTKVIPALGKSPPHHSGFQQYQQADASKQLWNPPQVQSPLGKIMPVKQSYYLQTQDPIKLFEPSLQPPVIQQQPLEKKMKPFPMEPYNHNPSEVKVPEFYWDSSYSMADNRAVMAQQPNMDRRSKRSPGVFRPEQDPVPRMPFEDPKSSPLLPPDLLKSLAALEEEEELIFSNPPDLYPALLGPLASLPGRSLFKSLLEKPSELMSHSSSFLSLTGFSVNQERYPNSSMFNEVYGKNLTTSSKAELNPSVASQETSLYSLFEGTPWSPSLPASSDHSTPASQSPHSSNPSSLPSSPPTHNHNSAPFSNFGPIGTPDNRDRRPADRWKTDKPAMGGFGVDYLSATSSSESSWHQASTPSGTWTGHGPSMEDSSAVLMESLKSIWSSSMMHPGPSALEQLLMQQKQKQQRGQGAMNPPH

B1: DDX25, Q9QY15 1-484 (protein)
chain: MASLLWGGDAGAAESERLNSHFSNLVHPRKNLRGIRSTTVPNIDGSLNTEDDDDDEDDVVDLAANSLLNKLIRQSLIESSHRVEVLQKDPSSPLYSVKTFEELRLKEELLKGIYAMGFNRPSKIQEMALPMMLAHPPQNLIAQSQSGTGKTAAFVLAMLSRVNALELFPQCLCLAPTYELALQTGRVVERMGKFCVDVEVMYAIRGNRIPRGTEVTKQIIIGTPGTVLDWCFKRKLIDLTKIRVFVLDEADVMIDTQGFSDQSIRIQRALPSECQMLLFSATFEDSVWQFAERIIPDPNVIKLRKEELTLNNIRQYYVLCENRKGKYQALCNIYGGITIGQAIIFCQTRRNAKWLTVEMMQDGHQVSLLSGELTVEQRASIIQRFRDGKEKVLITTNVCARGIDVKQVTIVVNFDLPVNQSEEPDYETYLHRIGRTGRFGKKGLAFNMIEVDKLPLLMKIQDHFNSNIKQLDPEDMDEIEKIEY
B2: SMG5 (protein, UniProt Q6ZPY2 1-1017)
chain: MSQGPPPGESSEPEAKVLHTKRLYRAVVEAVHRLDLILCNKAAYQEVFKPENVSLRNKLRELCVKLMFLHPVDYGRKAEELLWRKVYYEVIQLIKTNKKHIHSRSTLECAYRTHLVAGIGFYQHLLLYIQSHYQLELQCCIDWTHVTDPLMGFKKPVSASGKEMDWAQMACHRCLVYLGDLSRYQNELAGVDTELLAERFYYQALSVAPQIGMPFNQLGTLAGSKYYNVEAMYCYLRCIQSEVSFEGAYGNLKRLYDKAAKMYHQLKKSETRKLSPSKKRCKDIKRLLVNFMYLQSLLQPKSSSVDSELTSLCQSVLEDFNLCLFYLPSSPNLGLTNEDEEECESGYAFLPDLLIFQMAIICLMGVHSLKRAGSKHYSAAIAFTLALFSHLINHVNIRLQAELEEGENPVSAFQSDGTDEPESKEALEKEEPEPEPPTVVPQADEGRKSRKHSRLSCLRRRRRHHPPKAGDDSDLSEGFESDSSHDSAQASDGSDSGSDKSLEGRGTAFDAETDSEMNSQESRSDLEDMEDEEGTRSPAQEPPQARSEVPDSLNGPLGPSEASIASNLQAMSTQMFQTKRCFRLAPTFSNLLLQPTTEPNSVASHRPCVNGDMDKPLEPASEDGSESEGSESSNRSCRNERSLQEKLQALMAEGLLPAVKVFLDWLRTNPDLIIVCAQSSQSLWNRLSVLLNLLPASAELQDSGLALCSEVQGLLEGCELPDLPASLLLPEDMALRNLPPLRAAHRRFNFDADRPLLSALEESVVRICCIRSFGHFVARLQGSILQFNPEVGIFVSIAQSEQESLLQQAQAQFRMAEEEARRNRLMRDMAQLRLQLEVSQLEGSLQQPKAQSAMSPYLIPDTQALCYHLPLIRQLATSGRFIIIIPRTVIDGLDLLKKEQPGARDGIRYLEAEFKKGNRYIRCQKEVGKSFERHKLKRQDADAWTLYKILDSCRQLTLAQGAGEEDPSGMVTIITGLHLDSPSALSGPMQAALQAAAHASVDVKNVLDFYRQWKEIG
B3: GTSF1 (protein, UniProt Q9DAN6 1-167)
chain: MEDTYIDSLDPEKLLQCPYDKNHQIRACRFPYHLIKCRKNHPDVANKLATCPFNARHQVPRAEISHHISSCDDKSCIEQDVVNQTRNLGQETLAESTWQCPPCDEDWDKDLWEQTSTPFVWGTASFCGNNSPANNIVMEHKSNLASGMRVPKSLPYVLPWKNNGNAQ

What was measured:
[1] = target: SMG6 (mouse (endogenous in testis)) (UniProt P61406); assay: affinity purification with mass spectrometry; IP with anti-SMG6, anti-SMG7 or rabbit IgG from adult mouse testis lysate in nondenaturing lysis buffer, LC-ESI-MS/MS; threshold of at least 1 peptide hit in at least two replicate IPs
[2] = target: T1, DEAD box polypeptide 4 (DDX4) (mouse (endogenous in testis)); assay: affinity purification with mass spectrometry; chromatoid bodies isolated by anti-DDX4 IP from 0.1% PFA cross-linked mouse germ cells (Smg6-cKO and control), LC-ESI-MS/MS; rabbit IgG as control
[3] = target: T2, DEAD box polypeptide 4 (DDX4) (mouse …); assay: as above; conditions: remark: other sources report otherwise
[4] = target: T3, SMG7 (mouse (endogenous in testis)); assay: affinity purification with mass spectrometry; IP with anti-SMG6, anti-SMG7 or rabbit IgG from adult mouse testis lysate in nondenaturing lysis buffer, LC-ESI-MS/MS; threshold of at least 1 peptide hit in at least two replicate IPs

Molecule | binding [1] | other results
EIF4A3 (from UniProt Q91VC3 1-411) | binds | –
EWSR1 (from UniProt Q61545 1-655) | binds | –
PCBP2 (from UniProt Q61990 1-362) | binds | –
PIWIL1 (from UniProt Q9JMB7 1-862) | – | binding [2]: binds
TDRD3 (from UniProt Q91W18 1-743) | binds | –
B1 | – | binding [3]: binds
B2 | – | binding [4]: binds
B3 | – | binding [2]: no binding

Source: PMC9723633
